The source of these data is patent publication US20140234888A1, “Method for Improved Selection of Therapeutic Agents” (priority 2013, published 2014).

The subject of this assay is Chronic rhinitis of allergic origin, chronic bronchitis. Description: Treatment of patient F. It is filed as in vivo, human. The conditions noted are these: before individual testing. As to the method:
Diagnosis: “Chronic rhinitis of allergic origin, chronic bronchitis, allergic component in the acute stage.” In history: positive allergic reactions to penicillin antibiotics, the lack of reaction to tetracycline antibiotics. […] Doxycycline is used in doses of 100 mg and 200 mg on admission; when calculating the duration of induktothermy effect was adopted by the duration of the patient's blood sample for 2 seconds, which corresponds to the length of the actual procedure, 25-30 minutes.

For `CN1CCC[C@@H]1CCO[C@](C)(c1ccccc1)c1ccc(Cl)cc1` [Tavegil], the “efficiency of conventional therapy” value is “low efficiency”.
